These are yes or no findings as the source states them, for the method shown. In cells and extracts the contact can be indirect. Some results given as binding are weak or reduced against the parent protein; the word gives no strength.
T1: Pol31 (Drosophila melanogaster (endogenous in embryos)) (UniProt Q9W088)
T1 sequence: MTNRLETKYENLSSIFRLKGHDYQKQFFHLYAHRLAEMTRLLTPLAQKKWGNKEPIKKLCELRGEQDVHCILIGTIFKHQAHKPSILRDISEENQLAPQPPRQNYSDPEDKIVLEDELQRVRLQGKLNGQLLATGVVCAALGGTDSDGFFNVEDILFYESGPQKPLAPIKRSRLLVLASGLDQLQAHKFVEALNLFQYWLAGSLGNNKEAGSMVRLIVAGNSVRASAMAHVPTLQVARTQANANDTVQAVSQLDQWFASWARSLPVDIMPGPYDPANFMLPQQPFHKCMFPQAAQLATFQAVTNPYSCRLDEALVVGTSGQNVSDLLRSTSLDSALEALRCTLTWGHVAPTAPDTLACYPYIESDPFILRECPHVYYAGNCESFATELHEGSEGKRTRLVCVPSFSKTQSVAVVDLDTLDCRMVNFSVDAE

T2: PolD (Drosophila melanogaster (endogenous in embryos)) (UniProt P54358)
T2 sequence: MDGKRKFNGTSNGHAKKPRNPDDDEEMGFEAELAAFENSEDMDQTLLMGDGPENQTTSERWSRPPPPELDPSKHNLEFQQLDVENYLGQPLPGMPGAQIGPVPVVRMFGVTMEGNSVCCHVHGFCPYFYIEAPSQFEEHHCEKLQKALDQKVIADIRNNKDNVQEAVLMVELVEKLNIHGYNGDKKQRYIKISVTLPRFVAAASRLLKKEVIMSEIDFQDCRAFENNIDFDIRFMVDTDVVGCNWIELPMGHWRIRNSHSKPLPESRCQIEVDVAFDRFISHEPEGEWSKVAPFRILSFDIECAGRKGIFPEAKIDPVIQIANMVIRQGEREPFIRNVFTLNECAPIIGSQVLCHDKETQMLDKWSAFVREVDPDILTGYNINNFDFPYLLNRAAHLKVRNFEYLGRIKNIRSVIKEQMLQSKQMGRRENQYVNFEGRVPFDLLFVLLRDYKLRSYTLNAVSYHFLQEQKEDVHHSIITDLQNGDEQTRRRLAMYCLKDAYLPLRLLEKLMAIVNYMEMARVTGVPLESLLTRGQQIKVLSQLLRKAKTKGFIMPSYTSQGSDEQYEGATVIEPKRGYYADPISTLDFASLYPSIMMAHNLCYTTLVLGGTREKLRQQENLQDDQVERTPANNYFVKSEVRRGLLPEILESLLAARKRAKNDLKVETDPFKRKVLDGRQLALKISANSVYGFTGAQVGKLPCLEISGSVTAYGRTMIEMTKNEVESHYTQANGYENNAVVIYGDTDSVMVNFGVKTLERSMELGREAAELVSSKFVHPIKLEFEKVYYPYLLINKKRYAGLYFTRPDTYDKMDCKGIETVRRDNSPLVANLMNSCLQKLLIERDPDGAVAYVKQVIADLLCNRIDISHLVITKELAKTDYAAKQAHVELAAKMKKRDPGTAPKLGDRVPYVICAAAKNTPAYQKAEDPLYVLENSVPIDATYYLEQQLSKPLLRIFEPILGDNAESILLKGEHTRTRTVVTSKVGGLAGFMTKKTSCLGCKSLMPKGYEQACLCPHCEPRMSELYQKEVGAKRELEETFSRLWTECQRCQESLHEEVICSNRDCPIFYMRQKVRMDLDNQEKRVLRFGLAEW


Legend:
[1] = molecular target: T1, Pol31 (Drosophila melanogaster (endogenous in embryos)); test: co-IP; extracts of early embryos (wild type; also pol32 mutant) in PBS with 0.3% Triton X-100 and protease inhibitors; IP with anti-PolD serum, purified anti-Pol32 antibody or anti-Pol31 serum, 3 h at 4°C; Protein A/G agarose; Western blot; pre-immune serum as control
[2] = molecular target: T2, PolD (Drosophila melanogaster (endogenous in embryos)); test: as above

| binding [1] | binding [2] | Binder |
| --- | --- | --- |
| binds | – | PolD (protein, UniProt P54358 1-1092) MDGKRKFNGTSNGHAKKPRNPDDDEEMGFEAELAAFENSEDMDQTLLMGDGPENQTTSERWSRPPPPELDPSKHNLEFQQLDVENYLGQPLPGMPGAQIGPVPVVRMFGVTMEGNSVCCHVHGFCPYFYIEAPSQFEEHHCEKLQKALDQKVIADIRNNKDNVQEAVLMVELVEKLNIHGYNGDKKQRYIKISVTLPRFVAAASRLLKKEVIMSEIDFQDCRAFENNIDFDIRFMVDTDVVGCNWIELPMGHWRIRNSHSKPLPESRCQIEVDVAFDRFISHEPEGEWSKVAPFRILSFDIECAGRKGIFPEAKIDPVIQIANMVIRQGEREPFIRNVFTLNECAPIIGSQVLCHDKETQMLDKWSAFVREVDPDILTGYNINNFDFPYLLNRAAHLKVRNFEYLGRIKNIRSVIKEQMLQSKQMGRRENQYVNFEGRVPFDLLFVLLRDYKLRSYTLNAVSYHFLQEQKEDVHHSIITDLQNGDEQTRRRLAMYCLKDAYLPLRLLEKLMAIVNYMEMARVTGVPLESLLTRGQQIKVLSQLLRKAKTKGFIMPSYTSQGSDEQYEGATVIEPKRGYYADPISTLDFASLYPSIMMAHNLCYTTLVLGGTREKLRQQENLQDDQVERTPANNYFVKSEVRRGLLPEILESLLAARKRAKNDLKVETDPFKRKVLDGRQLALKISANSVYGFTGAQVGKLPCLEISGSVTAYGRTMIEMTKNEVESHYTQANGYENNAVVIYGDTDSVMVNFGVKTLERSMELGREAAELVSSKFVHPIKLEFEKVYYPYLLINKKRYAGLYFTRPDTYDKMDCKGIETVRRDNSPLVANLMNSCLQKLLIERDPDGAVAYVKQVIADLLCNRIDISHLVITKELAKTDYAAKQAHVELAAKMKKRDPGTAPKLGDRVPYVICAAAKNTPAYQKAEDPLYVLENSVPIDATYYLEQQLSKPLLRIFEPILGDNAESILLKGEHTRTRTVVTSKVGGLAGFMTKKTSCLGCKSLMPKGYEQACLCPHCEPRMSELYQKEVGAKRELEETFSRLWTECQRCQESLHEEVICSNRDCPIFYMRQKVRMDLDNQEKRVLRFGLAEW |
| binds | binds | Pol32 (protein, UniProt Q9Y118 1-431) MSLKKALDDCMIDFDRCVLVTDLLEEYKLSYKEVNDVLEAYIKEQEPATKFEKRFLVHGKRKTQGSDSGEDLYSVVLESRMQDWLAKVQDAESQLYSVKIAGGTKAPAAIFKPMQHLEVKLAKVEQRPGAGKIVPSANGTTPHNGVKSEPTKSEPSKSAVKLEPSKSSLKSEPAKSKAEKPVASKSSPEDKKTSPKEQASKAKPAAAKKGSINSFFTAAASKPKDVKATPSKSTSGTVDNFFKKQPAGAKKSPPESEDKSKKDASNSNKKEASKKKSPSPTKKPTTANTSMQLFDEESAESSDEEEKLDMLRRKVIESDNDSDQEKASSSKRRRISDSEDEEQPPKKSADEETIALDEKMDTEPANETYLDEDGFVITQRKPTKAQPANKKVSPKAAAPVNKKKSPPSAAKAGKDAPKTKQAGIMNFFSKK |

From publication PMC6542543
